Values quoted from earlier work, collected in patent US9487476B2, “Catechol diethers as potent anti-HIV agents” (priority 2011, dated 2016).
Some of these results come from one statement about several compounds together.

Test system: HIV-1 Y181C variant
Conditions: literature; read-out: reported anti-HIV activity, Y181C; cited from earlier work

SMILES	EC50 [nM]
N#C/C=C/c1cc(Cl)cc(Oc2cc(Nc3ncnc(C4CC4)n3)ccc2C#N)c1 [Compound 37]	< 5
CCc1c(C)[nH]c(=O)c(I)c1Oc1cccc(/C=C/C#N)c1 [Compound 38]	< 5
Cc1cc(/C=C/C#N)cc(C)c1Nc1ccnc(Nc2ccc(C#N)cc2)n1 [rilpivirine, 4-[[4-[[4-[(1E)-2-cyanoethenyl]-2,6-dimethylphenyl]amino]-2-pyrimidinyl]amino]benzonitrile]	< 5
